# Some of these results come from one statement about several compounds together.
# Tested on: HeLa cells
# Assay: Phosphorescence imaging and microplate-reader phosphorescence intensity of HeLa cells with added iridium complex
# Assay type: cell-based
# Settings: 500 nM
# Procedure: Luminescence micrograph: inverted research microscope, IX-71; manufactured by Olympus Corporation
# Luminescence intensity, luminescence lifetime: microplate reader, Infinite 200 PRO; manufactured by TECAN.
# Using the iridium complexes developed, imaging experiments for living cells were carried out. […] For quantitative evaluation, the phosphorescence intensity was measured using a microplate reader (FIG. 4).
# For C6-BEDA and C545T-BEDA, intracellular oxygen responsiveness was evaluated. […] Further, as a result of measurement of the phosphorescence intensity using a microplate reader, it was shown that the phosphorescence intensity increases 3-fold or more under an oxygen partial pressure of 2.5% (FIG. 4).
substance,measurement,setting,value
"Bis[3-(benzo[d]thiazol-2-yl)-7-(diethylamino)-2H-chromen-2-one-κN, κC^4]N^1,N^2-dibutylethane-1,2-diamine iridium(III) hexafluorophosphate [C6-BEDA]",time for incorporation into cells,,≤ 2 h
same,increase in phosphorescence intensity under oxygen partial pressure of 2.5%,"2 hours culture, 2.5% vs 21% oxygen partial pressure, microplate reader",≥ 3 fold

# — patent publication US12454541B2, “Reagent for measuring oxygen concentration in cell and tissue” (NATIONAL UNIVERSITY CORPORATION GUNMA UNIVERSITY, priority 2019, dated 2025)
